The other results are listed elsewhere or left out.
Experiment: TAG lipid buildup reduction in H9c2 cells – cell-based, uHTS, fluorescence, primary screen (AID 651582)
Conditions: Nile Red lipid (TAG) fluorescence, DAPI nuclei count viability, at 12.5 µM, cells loaded with 200 µM oleic acid

SMILES | DAPI activity (viability loss) [%]
O=[N+]([O-])c1cc([N+](=O)[O-])c(Nc2cccnc2)c([N+](=O)[O-])c1 | -0.071
O=[As](O)(c1ccc(O)cc1)c1ccccc1O | 8.1
COc1cc(C(=O)NCC2(N3CCOCC3)CCCCC2)ccc1OCC(C)C | -5.67
O=[N+]([O-])c1ccc(-c2cc([N+](=O)[O-])c(O)c([N+](=O)[O-])c2)cc1 | -12.6
Cc1cccc(C)c1OP(C)(N)=O (configuration not stated) | -7.99
Cc1ccc2nc3c(c(C)c2c1)CC(C(Cl)Cl)S3 (configuration not stated) | 6.23
O=[N+]([O-])c1ccc2c(c1)C=Nc1ccccc1O2 | -2.78
ClCCSc1nnc(-c2cccnc2)o1 | 6.04
CC(C)c1ccc(OP(=O)(Nc2ccccn2)Oc2ccccc2F)cc1 (configuration not stated) | -9.99
Cc1ccc(NP(C)(=O)Oc2ccccc2)c(C)c1 (configuration not stated) | -16.2
COC(=O)C1(C)COP(=O)(N2CCCCCC2)OC1 (configuration not stated) | -6.3
O=C(OC1CN2CCC1CC2)c1cccc2[nH]cnc12 (configuration not stated) | 5.94
CCN(CC)C(=S)SC(NC=O)C(Cl)(Cl)Cl (configuration not stated) | -59
COc1ccccc1OP(C)(=O)Nc1cc(Cl)ccc1C (configuration not stated) | 4.69
O=[N+]([O-])c1cc([N+](=O)[O-])c(-c2ccn[nH]2)s1 | -1.35
COc1ccc(OP(C)(=O)Nc2cccc(F)c2)cc1 (configuration not stated) | 7.79
Cc1cc(C)cc(OP(C)(N)=O)c1 (configuration not stated) | 1.28
Cc1c2c(nc3ccccc13)SC(C(Cl)Cl)C2 (configuration not stated) | 20.1
O=C(OC1CN2CCC1CC2)C12CC3CC(CC(C3)C1)C2 (configuration not stated) | 18
CCN(CC)CCCOC(=O)C(O)(c1ccccc1)c1ccccc1 | -5.2
O=P1(N(CCCl)CCCl)OCCCN1CCCl (configuration not stated) | 5.83
O=P1(N(CCCl)CCCl)Nc2ccccc2N1 | -5.57

SMILES | DAPI activity (viability loss) [%]
COc1ccc2nc(NP(=O)(c3ccccc3)c3ccccc3)sc2c1 | 3.96
COc1cc(I)ccc1[As](=O)(O)O | -3.44
O=[N+]([O-])c1cc(Oc2ccc([N+](=O)[O-])cc2C(F)(F)F)cc([N+](=O)[O-])c1 | 6.3
COc1ccc(N/C(=N/P(=O)(N2CCOCC2)N2CCOCC2)N2CCOCC2)cc1 | 0.541
Cc1ccc(Nc2c([N+](=O)[O-])cc([N+](=O)[O-])cc2[N+](=O)[O-])cc1 | -18.2
CP(=O)(Nc1ccc(SC(F)(F)F)cc1)Oc1ccc(Cl)cc1 (configuration not stated) | 0.555
CP(=O)(Oc1ccccc1)OC(c1ccccc1)C(F)(F)F (configuration not stated) | -7
CCc1ccc(OP(C)(=O)N2CCN(c3ccc([N+](=O)[O-])cc3)CC2)cc1 (configuration not stated) | 3.5
O=C(COc1ccccc1)OC1CN2CCC1CC2 (configuration not stated) | -0.681
CCOP(C)(=S)SCC(=O)NC(C)C(=O)O (configuration not stated) | 4
CSc1ccc(Nc2c([N+](=O)[O-])cc([N+](=O)[O-])cc2[N+](=O)[O-])cc1 | -3.88
CCOC(=O)c1ccc(NC(=O)C(C)(CCl)SC)cc1 (configuration not stated) | -3.91
O=[N+]([O-])c1cc([N+](=O)[O-])c(O)c([N+](=O)[O-])c1.c1ccc(Oc2ccncc2)cc1 | -7.58
CCC(C)N(CC(C)C)C(=S)SC(NC(C)=O)C(Cl)(Cl)Cl (configuration not stated) | -6.16
CCOC(=O)Nc1ccc([As](=O)(O)O)c(O)c1 | -7.49
O=C(O)C(=O)c1ccc(N(CCCl)CCCl)cc1.c1ccc(Nc2ccccc2)cc1 | -1.28
CC1CCNP(=O)(N(CCCl)CCCl)O1 (configuration not stated) | -0.183
COP(=O)(OC)N1CC1c1ccccc1 (configuration not stated) | 7.74
CP(=S)(Nn1cnnc1)Oc1ccccc1 (configuration not stated) | 0.759
O=P(Nc1ccccn1)(c1cccc2ccccc12)c1cccc2ccccc12 | -10.2
Cc1cc(SC(NC=O)C(Cl)(Cl)Cl)ncn1 (configuration not stated) | -1.76
COc1ccccc1OP(C)(=O)Nc1ccccc1 (configuration not stated) | -9.96

SMILES | DAPI activity (viability loss) [%]
CC1CCC(C(C)C)C(OP(=O)(Nc2ccccn2)c2ccccc2)C1 (configuration not stated) | 12.6
CN(C)C1(CNC(=O)c2ccc(S(C)(=O)=O)cc2)CCCCC1 | -10.5
CC1=C2N=C(C=C3N=C(C(C)=C4[N-][C@@](C)([C@@H]5N=C1[C@](C)(CCC(=O)NC[C@@H](C)OP(=O)([O-])O[C@H]1[C@@H](O)[C@@H](n6cnc7cc(C)c(C)cc76)O[C@@H]1CO)[C@H]5CC(N)=O)[C@@](C)(CC(N)=O)[C@@H]4CCC(N)=O)[C@@](C)(CC(N)=O)[C@@H]3CCC(N)=O)C(C)(C)[C@@H]2CCC(N)=O.[C-]#N.[Co+3] | -2.55
CCOC(=O)C(CC)C1=NC(C)(C)Cc2ccccc21.O=[N+]([O-])c1cc([N+](=O)[O-])c(O)c([N+](=O)[O-])c1 (configuration not stated) | 5.64
O=C(/C=C/c1ccccc1)OC1CN2CCC1CC2 (configuration not stated) | -9.81
CCCC1OP(=O)(Nc2ccccc2)OCC1CC (configuration not stated) | 7.93
O=P1(Nc2ncccn2)COc2ccccc2OC1 | 6.06
COc1ccccc1OP(C)(=O)Nc1c(C)cccc1C (configuration not stated) | 12.6
CN1CCCCC1COC(=O)C1(O)c2ccccc2CCc2ccccc21 (configuration not stated) | -10.7
Nc1cccc([As](=O)(O)c2ccccc2)c1 | 4.42
CCCOc1ccc(NP(C)(=O)Oc2ccc(Cl)cc2)cc1 (configuration not stated) | 7.16
O=P1(Nc2ccc(Br)cn2)COc2ccccc2OC1 | 7.92
NS(=O)(=O)c1cccc(NC(=O)COC(=O)C(O)(c2ccccc2)c2ccccc2)c1 | 1.53
Cc1ccc(OCC(=O)OC2CN3CCC2CC3)cc1 (configuration not stated) | -6.11
O=C(O)C(O)c1ccc(N(CCCl)CCCl)cc1.c1ccncc1 (configuration not stated) | -2.26
O=P1(Nc2ccccn2)COc2ccccc2OC1 | 11.8
O=[N+]([O-])c1cc([N+](=O)[O-])c(-n2nnc3ccccc32)c([N+](=O)[O-])c1 | -4.67
CN(CCCl)Cc1cc(Cl)c(NC2=NCCN2)c(Cl)c1 | -2.53
O=P1(N(CCCl)CCCl)NCCC(C(F)(F)F)O1 (configuration not stated) | 11
Clc1n[nH]nc1-c1nn[nH][15n]1 | 0.505
CC(C)(C)C(=O)NC(Sc1ncccn1)C(Cl)(Cl)Cl (configuration not stated) | -2.97
O=[N+]([O-])c1cc([N+](=O)[O-])c(-c2cnn(-c3ccccc3)c2)c([N+](=O)[O-])c1 | -19.4

SMILES | DAPI activity (viability loss) [%]
COc1ccccc1CNC(=O)COC(=O)C(O)(c1ccccc1)c1ccccc1 | 3.49
CC(C)/C=N\N=C(\N)N[N+](=O)[O-] | 3.72
CN(C(=O)Cc1ccc(Cl)c(Cl)c1)[C@@H]1CCCC[C@H]1N1CCCC1 | 8.97
Cc1nc2ccc3ccccc3c2s1.O=[N+]([O-])c1cc([N+](=O)[O-])c(O)c([N+](=O)[O-])c1 | 3.57
CC1(CBr)Cn2c(nc3ccccc3c2=O)S1 (configuration not stated) | 3.63
O=C(OC1CN2CCC1CC2)c1ccc(Cl)cc1 (configuration not stated) | -14.7
COc1cc(C(=O)NCC2(N3CCOCC3)CCCCC2)cc(Cl)c1OC(C)C | 2.72
O=[As](O)(O)c1cccnc1 | 8.15
COc1ccccc1OP(C)(=O)Nc1cccc(Br)c1 (configuration not stated) | -5.9
O=[As](O)(c1cccc(O)c1)c1cccc(O)c1 | -2.24
Cc1cccc(OCC(=O)OC2CN3CCC2CC3)c1 (configuration not stated) | -0.0983
CP(=O)(Nc1cccc(Br)c1)Oc1ccccc1 (configuration not stated) | 4.66
Cc1ccc(NCCc2c([N+](=O)[O-])cc([N+](=O)[O-])cc2[N+](=O)[O-])cc1 | -1.84
Cc1ccc(C)c(NP(C)(=O)Oc2ccccc2)c1 (configuration not stated) | -2.54
O=C(O)c1cccc(Nc2c([N+](=O)[O-])cc([N+](=O)[O-])cc2[N+](=O)[O-])c1 | -4.28
O=P(Nc1nccs1)(Oc1ccccc1)Oc1ccccc1 | -2.54
CS(=O)(=O)c1cc([N+](=O)[O-])c2no[n+]([O-])c2c1 | 4.86
Nc1ccccc1[As](=O)(O)c1ccccc1 | -11.2
NC(=O)Nc1ccc([As](=O)(O)O)cc1 | -1.92
N#CCCN(C(=O)COC(=O)C(O)(c1ccccc1)c1ccccc1)c1ccc(F)cc1 | -3.93
CN(C(=O)Cc1ccccc1)[C@@H]1CC[C@]2(CCCO2)C[C@H]1N1CCCC1 | -1.23
CN(C)C(=O)c1cc([N+](=O)[O-])cc2c1-c1c(cc([N+](=O)[O-])cc1[N+](=O)[O-])C2=O | -49.4

SMILES | DAPI activity (viability loss) [%]
CN(C(=O)Cc1ccc(Cl)c(Cl)c1)[C@H]1CC[C@@]2(CCCO2)C[C@@H]1N1CCCC1 | -1.81
CC1=NCCc2c1[nH]c1ccccc21.O=[N+]([O-])c1cc([N+](=O)[O-])c(O)c([N+](=O)[O-])c1 | 0.358
Cc1ccc(NP(=O)(Oc2cccc(C)c2)Oc2cccc(C)c2)nc1 | 8.29
CCNC(=S)/N=C(\N)N[N+](=O)[O-] | -1.05
COc1ccc(OP(C)(=O)Nc2ccc(SC(F)(F)F)cc2)cc1 (configuration not stated) | -4.4
O=P1(N(CCCl)CCCl)OCCC2CCCCN21 (configuration not stated) | -1.56
CCN(CC)CCCOC(=O)C(O)(c1ccccc1)C1CCCCC1 (configuration not stated) | 13.8
CCC(=O)N1C2C3N(C(=O)CC)C1C1N(C(=O)CC)C(C(N1C(=O)CC)N3C(=O)CC)N2C(=O)CC | 8.37
Cc1c([N+](=O)[O-])cc([N+](=O)[O-])c(Br)c1[N+](=O)[O-] | 3.95
COC(=O)c1cc2c(s1)N=C(c1ccccc1)N(C)P2(=O)N1CCOCC1 (configuration not stated) | -0.924
Cc1ccc(OP(=O)(Nc2ccccn2)Oc2ccc(C)cc2)cc1 | -0.456
CC(=O)NC(SC(=S)N(CC(C)C)CC(C)C)C(Cl)(Cl)Cl (configuration not stated) | -10
Cc1ccccc1OP(=O)(Nc1ccccn1)Oc1ccccc1C | -1.97
CC(NC(=O)COC(=O)C(O)(c1ccccc1)c1ccccc1)c1ccccc1 (configuration not stated) | 0.0647
CN(C)C(=O)Oc1noc2ccccc12 | 5.21
O=[N+]([O-])c1cc([N+](=O)[O-])c(OC2CCCCC2O)c([N+](=O)[O-])c1 (configuration not stated) | -9.92
O=c1c2cc([N+](=O)[O-])ccc2[nH]c2c([N+](=O)[O-])cc([N+](=O)[O-])cc12 | -44
CCCCCOc1ccc(NP(C)(=O)Oc2ccc(Cl)cc2Cl)cc1 (configuration not stated) | 4.39
O=P1(Nc2nc3ccc(Cl)cc3s2)COc2ccccc2O1 (configuration not stated) | 3.97

Reference: PubChem BioAssay AID651582 (Sanford-Burnham Center for Chemical Genomics, 2012)
